# Assay results published in the supplement of paper PMC8728848.
# The other results are listed elsewhere or left out.
# B1: MUB70 (Lactobacillus reuteri) (protein)
# chain: CVHVQYIDGETDQMLRQDDLDGYTDETIPYSTAEGIKKFEGDGYELFKDNFPAGEKFDNDDTNDQFYTVIF
# Assays:
# Experiment in all cases: glycan array binding signal (z-score within array); higher = stronger binding
# Details in all cases: glycan notation: IUPAC condensed, linker removed
# [1] = target: Neu5Ac(a2-6)GlcNAc(b1-4)GlcNAc
# Summary of the method: (§1)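 The binding signal is a Z-score computed within each array and averaged over linkers. Arrays of the same protein sequence at different concentrations or buffers were also averaged together. Data originate from 3228 arrays in the Consortium for Functional Glycomics database, kept only where the protein sequence was available.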
# [2] = target: Neu5Ac(a2-6)GlcNAc(b1-4)GlcNAc(b1-4)GlcNAc
# Summary of the method: as §1
# [3] = target: Neu5Ac(a2-8)Neu5Ac
# Summary of the method: as §1
# [4] = target: Neu5Ac(a2-8)Neu5Ac(a2-3)Gal(b1-3)GalNAc(b1-4)[Neu5Ac(a2-3)]Gal(b1-4)Glc
# Summary of the method: as §1
# [5] = target: Neu5Ac(a2-8)Neu5Ac(a2-3)Gal(b1-3)GalNAc(b1-4)[Neu5Ac(a2-8)Neu5Ac(a2-3)]Gal(b1-4)Glc
# Summary of the method: as §1
# [6] = target: Neu5Ac(a2-8)Neu5Ac(a2-3)Gal(b1-4)Glc
# Summary of the method: as §1
# [7] = target: Neu5Ac(a2-8)Neu5Ac(a2-3)Gal(b1-4)GlcNAc
# Summary of the method: as §1
# [8] = target: Neu5Ac(a2-8)Neu5Ac(a2-3)[Gal(b1-3)GalNAc(b1-4)]Gal(b1-4)Glc
# Summary of the method: as §1
# [9] = target: Neu5Ac(a2-8)Neu5Ac(a2-3)[GalNAc(b1-4)]Gal(b1-4)Glc
# Summary of the method: as §1
# [10] = target: Neu5Ac(a2-8)Neu5Ac(a2-8)Neu5Ac
# Summary of the method: as §1
# [11] = target: Neu5Ac(a2-8)Neu5Ac(a2-8)Neu5Ac(a2-3)Gal(b1-4)Glc
# Summary of the method: as §1
# [12] = target: Neu5Ac(a2-8)Neu5Ac(a2-8)Neu5Ac(a2-3)[Gal(b1-3)GalNAc(b1-4)]Gal(b1-4)Glc
# Summary of the method: as §1
# [13] = target: Neu5Ac(a2-8)Neu5Ac(a2-8)Neu5Ac(a2-3)[GalNAc(b1-4)]Gal(b1-4)Glc
# Summary of the method: as §1
# [14] = target: Neu5Ac(a2-8)Neu5Ac(a2-8)Neu5Ac(a2-8)Neu5Ac(a2-3)[GalNAc(b1-4)]Gal(b1-4)Glc
# Summary of the method: as §1
# [15] = target: Neu5Ac(a2-8)Neu5Gc(a2-3)Gal(b1-4)GlcNAc
# Summary of the method: as §1
# [16] = target: Neu5Ac(b2-6)Gal(b1-4)GlcNAc
# Summary of the method: as §1
# [17] = target: Neu5Ac(b2-6)GalNAc
# Summary of the method: as §1
# [18] = target: Neu5Ac9Ac(a2-3)Gal(b1-3)GlcNAc
# Summary of the method: as §1
# [19] = target: Neu5Ac9Ac(a2-3)Gal(b1-4)GlcNAc
# Summary of the method: as §1
# [20] = target: Neu5Ac9Ac(a2-6)Gal(b1-4)GlcNAc
# Summary of the method: as §1
# [21] = target: Neu5Gc(a2-3)Gal(b1-3)GlcNAc
# Summary of the method: as §1
# [22] = target: Neu5Gc(a2-3)Gal(b1-3)[Fuc(a1-4)]GlcNAc
# Summary of the method: as §1
# [23] = target: Neu5Gc(a2-3)Gal(b1-4)Glc
# Summary of the method: as §1
# [24] = target: Neu5Gc(a2-3)Gal(b1-4)GlcNAc
# Summary of the method: as §1
# [25] = target: Neu5Gc(a2-3)Gal(b1-4)GlcNAc(b1-3)Gal(b1-4)GlcNAc(b1-2)Man(a1-3)[Neu5Gc(a2-3)Gal(b1-4)GlcNAc(b1-3)Gal(b1-4)GlcNAc(b1-2)Man(a1-6)]Man(b1-4)GlcNAc(b1-4)GlcNAc
# Summary of the method: as §1
# [26] = target: Neu5Gc(a2-3)Gal(b1-4)[Fuc(a1-3)]GlcNAc
# Summary of the method: as §1
# [27] = target: Neu5Gc(a2-6)Gal(b1-4)GlcNAc
# Summary of the method: as §1
# [28] = target: Neu5Gc(a2-6)GalNAc
# Summary of the method: as §1
# [29] = target: Neu5Gc(a2-8)Neu5Ac(a2-3)Gal(b1-4)GlcNAc
# Summary of the method: as §1
# [30] = target: Neu5Gc(a2-8)Neu5Gc(a2-3)Gal(b1-4)GlcNAc
# Summary of the method: as §1
# [31] = target: Neu5Gc(a2-8)Neu5Gc(a2-3)Gal(b1-4)GlcNAc(b1-3)Gal(b1-4)GlcNAc
# Summary of the method: as §1
# [32] = target: Neu5Gc(a2-8)Neu5Gc(a2-6)Gal(b1-4)GlcNAc
# Summary of the method: as §1
# [33] = target: Neu5Gc(b2-6)Gal(b1-4)GlcNAc
# Summary of the method: as §1
binder,measurement,setting,value
B1,glycan array binding signal (z-score),[1],1.34
same,glycan array binding signal (z-score),[2],0.228
same,glycan array binding signal (z-score),[3],-0.59
same,glycan array binding signal (z-score),[4],0.038
same,glycan array binding signal (z-score),[5],-0.066
same,glycan array binding signal (z-score),[6],-0.58
same,glycan array binding signal (z-score),[7],-0.264
same,glycan array binding signal (z-score),[8],-0.393
same,glycan array binding signal (z-score),[9],-0.927
same,glycan array binding signal (z-score),[10],-0.324
same,glycan array binding signal (z-score),[11],-0.467
same,glycan array binding signal (z-score),[12],0.384
same,glycan array binding signal (z-score),[13],-0.92
same,glycan array binding signal (z-score),[14],-0.119
same,glycan array binding signal (z-score),[15],0.375
same,glycan array binding signal (z-score),[16],0.244
same,glycan array binding signal (z-score),[17],-0.135
same,glycan array binding signal (z-score),[18],-0.08
same,glycan array binding signal (z-score),[19],0.798
same,glycan array binding signal (z-score),[20],-0.158
same,glycan array binding signal (z-score),[21],-0.536
same,glycan array binding signal (z-score),[22],-0.763
same,glycan array binding signal (z-score),[23],0.129
same,glycan array binding signal (z-score),[24],0.866
same,glycan array binding signal (z-score),[25],1.95
same,glycan array binding signal (z-score),[26],-0.159
same,glycan array binding signal (z-score),[27],-0.476
same,glycan array binding signal (z-score),[28],-0.535
same,glycan array binding signal (z-score),[29],0.339
same,glycan array binding signal (z-score),[30],0.118
same,glycan array binding signal (z-score),[31],-0.59
same,glycan array binding signal (z-score),[32],-0.362
same,glycan array binding signal (z-score),[33],0.109

# In another format: results already given.
binder | measurement | setting | value
B1 | glycan array binding signal (z-score) | [3] | -0.59
same | glycan array binding signal (z-score) | [8] | -0.393
same | glycan array binding signal (z-score) | [16] | 0.244
